PubChem BioAssay AID1224830 – NIAID – 2016

Purpose: 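Host factors that control LPS-induced TNF expression in human macrophages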 (primary screen)
System: human THP-1 monocytic leukaemia cells, TNF dual-luciferase reporter clone, PMA-differentiated to macrophage-like cells
Reagent: siRNA pool against human genes, 50 nM
Duration: LPS for 4 h, given about 3 days after siRNA transfection
Challenge: bacterial LPS (TLR4 ligand), 10 ng/ml
Detection: 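Ratio of firefly to renilla light, scaled to the plate median and expressed as a robust z-score per replicate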
Direction: TNF reporter robust z-score: higher = stronger TNF reporter response to LPS
Active means: 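Each well counts as active if its z-score is over 2.8 or under -1.5; controls are left without a call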
In all, the deposit lists about 18,000 reagents; this is a part drawn at random. Over the whole deposit, about 2,900 (16%) are marked active. 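Calls are made per well; low scores hint the gene aids the LPS response, high scores that it dampens it.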 Unmarked entries are inactive. Repeated entries: four replicate wells of each siRNA pool. No sequences are given here.

| Gene | TNF reporter robust z-score |
| --- | --- |
| MAGED2 | -1.37 |
| MAGED2 | -0.57 |
| MAGED2 | -0.55 |
| MAGED2 | -0.53 |
| KIAA2013 | -0.1 |
| KIAA2013 | -0.72 |
| KIAA2013 | -1.2 |
| KIAA2013 | -0.47 |
| TSPAN7 | 0.97 |
| TSPAN7 | 1.92 |
| TSPAN7 | 0.55 |
| TSPAN7 | 2.16 |
| TNS4 | -0.87 |
| TNS4 | 0.52 |
| TNS4 | -0.24 |
| TNS4 | 0.76 |
| PDCD2 | -1.58 (active) |
| PDCD2 | -1.73 (active) |
| PDCD2 | -2.09 (active) |
| PDCD2 | -1.42 |
| OR9G4 | 4.64 (active) |
| OR9G4 | 1.32 |
| OR9G4 | 0.59 |
| OR9G4 | 0.25 |
| BFAR | 1.68 |
| BFAR | 1.93 |
| BFAR | -1.34 |
| BFAR | -0.58 |
| BCKDHB | 3.12 (active) |
| BCKDHB | -0.15 |
| BCKDHB | -0.95 |
| BCKDHB | 0.35 |
| RTCB | -1.09 |
| RTCB | 1.13 |
| RTCB | 0.19 |
| RTCB | 1.51 |
| KRT40 | 0.14 |
| KRT40 | 0.03 |
| KRT40 | 0.32 |
| KRT40 | -1.01 |
| PCDHGB2 | -0.04 |
| PCDHGB2 | -0.19 |
| PCDHGB2 | -0.36 |
| PCDHGB2 | -0.4 |
| FBRS | 1.43 |
| FBRS | 1.32 |
| FBRS | 0.95 |
| FBRS | 0.15 |
